These results are taken from publication PMC12077085, “Structural elements of cyanobacterial co-factor-independent phosphoglycerate mutase that mediate regulation by PirC” (mBio, 2025).

No constants are given. Whether binding was seen depends on the method and setting. Sequences can lack the tags named with a protein.

The test addresses strep-tagged iPGAM (2,3-bisphosphoglycerate-independent phosphoglycerate mutase, Slr1945) of Synechocystis sp. PCC 6803, wild type (Synechocystis sp. PCC 6803) (UniProt P74507). The test can be described thus: mass photometry; Refeyn OneMP; strep-iPGAM and strep-PirC alone (iPGAM 10 nM) and mixed at an iPGAM-PirC ratio of 1:3; both purified.

B1: strep-tagged iPGAM (2,3-bisphosphoglycerate-independent phosphoglycerate mutase, Slr1945) of Synechocystis sp. PCC 6803, wild type (enzyme, UniProt P74507 1-532)
chain: MAEAPIAPVVLVILDGWGYRPDTRANAIAQANTPIMDSLIAAYPNTLVNTSGKDVGLPKGQMGNSEVGHLNLGAGRVVPQELVRISDAIEDGTFFDNQALIEVCQRVRDRRGKLHLIGLCSDGGVHSHIDHLLGLIDLAKLQGISQLCIHAITDGRDTPTNEGAHFVQQIQAHLEKIGLGRIVSVSGRYYALDRDRRWDRVEKAYRVMTEDGVGDGRSAAQVIKDYYASDITDEFIPPTRIGAGAIASGDGVIFYNFRPDRARQLCYALVNPSFDGFPRERIQPLDFVTFTQYDPALPVVVAFEPQNLNNILGEIISRQGMKQFRTAETEKYPHVTYFFNGGLEQPFAGEDRELIQSPMVSTYDKAPQMSAKAVTDAVCRAMEKGIYSLVVVNYANPDMVGHTGKLKEAIQAIETVDLNLGRLLASAAKVGGTVLITADHGNAEYMSDESGNPWTAHTTNPVPFILVEGEGRKIPGHGGEVKLREGGKLADIAPTILDILQLPVPAEMTGKTLIDQPLVEIKANRTPVNLSR
As to B1, the binding entry was “no binding (tested: 10 nM)”.
